# Measurements reported in PubChem BioAssay AID504834 (National Center for Advancing Translational Sciences (NCATS), 2011).
# About 22,000 (6.9%) of roughly 320,000 compounds were called active. Inconclusive results, whose numbers are uncertain, are shown with a selection of clear calls. The call rests on the fitted dose curve; in most records, active means well fitted inhibition curve with a large enough effect; inconclusive means small, poorly fitted or top-dose-only effect, or another doubt; inactive means no such curve, though single readings can be large or run the other way. A potency beside an inconclusive call is a rough fit, not a confirmed value.
# Test: Primary qHTS for delayed death inhibitors of the malarial parasite plastid, 96 hour incubation
# Settings: P. falciparum luciferase reporter growth; series mostly up to 28.7 µM
# Method in brief: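 Cell-based qHTS: luciferase-tagged P. falciparum in erythrocytes (2% hematocrit, 0.05% parasitemia final) incubated with compounds for 96 hours, 37 C, 5% CO2; luciferase detection reagent then added and luminescence measured.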
# Potency means the concentration at half of the fitted maximal effect.
row,Compound,Potency
1,COc1cc(CN(C)CC2CCCN(CCc3ccc(F)cc3)C2)c(Cl)cc1O (stereo not drawn),"inconclusive: 18.5 µM [inhibitor, single point]"
2,COc1cccc2c(=O)n(CC(=O)Nc3ccccc3)ccc12,inactive
3,O=[N+]([O-])c1cc([N+](=O)[O-])c(Oc2ccc(F)cc2)cc1NN1CCCCC1,"inconclusive: 4.15 µM [inhibitor, partial curve, poor fit]"
4,Cc1ccccc1N(CC(=O)NC1CCCC1)C(=O)c1oc(C(C)(C)C)cc1C,"inconclusive: 18.5 µM [inhibitor, single point]"
5,CCOc1cc(CNCC(C)C)cc(Cl)c1OCc1ccccc1,active: 5.22 µM
6,COc1cc2nc(C3CCC3)n(NC(=O)c3ccco3)c(=O)c2cc1OC,"inconclusive: 18.5 µM [inhibitor, single point]"
7,Cc1nn2c(N3CCCC3)c3c(nc2c1-c1ccccc1)CCC3,"inconclusive: 10.4 µM [inhibitor, single point]"
8,CC(N=C1NS(=O)(=O)c2ccccc21)C(=O)Nc1ccc(F)cc1Cl (stereo not drawn),inactive
9,COc1ccccc1OCC(=O)Nc1ccccc1C(=O)NC1CC1,inactive
10,O=c1c2ccccc2nc2sc(Nc3cccc4ccccc34)nn12,"inconclusive: 20.8 µM [activator, partial curve, poor fit]"
11,CCC1(CC)NC(=O)N(CC(=O)OCC(=O)c2cc(C)c(C)cc2C)C1=O,inactive
12,COc1ccc(C2(NC(C)=O)CCN(Cc3cccnc3)CC2)cc1,inactive
13,CNC(=O)c1ccc(-c2sc3nc(N4CCOCC4)c4c(c3c2N)CCCC4)o1,"inconclusive: 10.4 µM [inhibitor, single point]"
14,CS(=O)(=O)c1[nH]nc(-c2cccc(Cl)c2)c1C#N,inactive
15,COCCCNC(=O)c1c(NC(=O)c2ccccc2Cl)n(Cc2ccccc2)c2nc3ccccc3nc12,"inconclusive: 18.5 µM [inhibitor, single point]"
16,CC(C)(C)c1cc(NC(=O)CCl)n(-c2ccccc2)n1,"inconclusive: 6.57 µM [inhibitor, partial curve]"
17,CCn1c(SCc2cc(=O)n3ccsc3n2)nc2ccccc21,"inconclusive: 8.28 µM [inhibitor, partial curve, poor fit]"
18,O=C(Nc1ccc(Cl)cc1)Nc1ccc(Br)cn1,"inconclusive: 8.28 µM [inhibitor, partial curve, poor fit]"
19,COc1ccccc1[C@@]1(C)ON(c2ccccc2C(F)(F)F)C1=O,active: 1.04 µM
20,Cc1cccc(NC(=O)CSc2nc(C3CC3)nc3ccccc23)c1,inactive
21,Cc1nc2c3ccccc3nc(NNC(=O)CCC(=O)N3CCN(c4ccc(F)cc4)CC3)n2n1,"inconclusive: 18.5 µM [inhibitor, single point]"
22,CN(C)C(=O)C1C2NC(=S)N(c3ccc(Cl)cc3)C1(C)Oc1ccc(Cl)cc12 (stereo not drawn),"inconclusive: 18.5 µM [inhibitor, single point]"
23,CCOc1ccc(CCNC(=O)CSCC(=O)Nc2ccc(OC)cc2)cc1OCC,"inconclusive: 10.4 µM [inhibitor, single point]"

row,Compound,Potency
1,COc1cc(SC)ccc1C(=O)Nc1nc(C)cc(C)n1,"inconclusive: 16.5 µM [inhibitor, single point]"
2,c1ccc(-c2cn3nc(-c4ccccc4)cnc3n2)cc1,inactive
3,COC(=O)C1=C(CS(=O)(=O)c2ccc(Cl)cc2)NC(=O)NC1c1ccc(O)c(OC)c1 (stereo not drawn),"inconclusive: 9.28 µM [inhibitor, single point]"
4,CCc1cccc(CC)c1N(COC)C(=O)Cn1c(CO)nc2ccccc21,"inconclusive: 8.28 µM [inhibitor, partial curve, poor fit]"
5,CC(=O)c1sc2nc(=O)c(C)nn2c1C,active: 3.7 µM
6,COC(=O)C(O)(c1ccc(N(C)C(=O)COc2ccccc2)cc1)C(F)(F)F (stereo not drawn),"inconclusive: 10.4 µM [inhibitor, partial curve]"
7,COc1ccc(NC(=O)C2CCN(C(=O)Nc3ccccc3)CC2)cc1S(=O)(=O)N(C)C,"inconclusive: 18.5 µM [inhibitor, single point]"
8,CC1(C)CC(NC(=S)NC(=O)c2cc(Br)ccc2Cl)CC(C)(C)N1,"inconclusive: 18.5 µM [inhibitor, single point]"
9,CCc1c(C)nc2c(Br)cccc2c1SCCC#N,"inconclusive: 9.28 µM [inhibitor, single point]"
10,COc1cccc(CNC(=O)CCC(=O)n2ncc3cc(C)ccc32)c1OC,"inconclusive: 11.7 µM [inhibitor, single point]"
11,O=C(Nc1ccccc1O)c1ccc(NS(=O)(=O)c2cccc3cccnc23)cc1,"inconclusive: 11.7 µM [inhibitor, single point]"
12,Cc1c(C)c2c(C)nn(-c3ccccc3)c2[nH]c1=O,"inconclusive: 18.5 µM [inhibitor, single point]"
13,COc1ccccc1NS(=O)(=O)c1cc(C(=O)N2CCCCCCC2)ccc1C,"inconclusive: 10.4 µM [inhibitor, single point]"
14,COc1cccc(C(C)NC(=O)c2ccncc2)c1 (stereo not drawn),inactive
15,CC(C)COc1ccc(C(=O)Nc2ncn[nH]2)cc1,inactive
16,Cc1cc(O)cc(=O)n1Cc1ccco1,"inconclusive: 0.415 µM [inhibitor, partial curve, poor fit]"
17,COCCn1c(C)cc(C(=O)COC(=O)CNC(=O)c2ccccc2)c1C,inactive
18,O=C(CCCCCn1c(=O)[nH]c2ccccc2c1=O)NCCc1c[nH]c2ccccc12,"inconclusive: 10.4 µM [inhibitor, single point]"
19,O=C(CSc1nc2ccccc2c(=O)n1-c1ccc(OC(F)F)cc1)NC1CC1,inactive
20,CC1CCN(C(=O)C2CCN(S(=O)(=O)N3CCC4(CC3)OCCO4)CC2)CC1,"inconclusive: 1.17 µM [inhibitor, single point]"
21,CC(C)Cc1ccc(CN2CCCC(NC(=O)CCN3CCCO3)C2)cc1 (stereo not drawn),"inconclusive: 4.15 µM [inhibitor, single point]"
22,Cc1ccc(N2C(=O)CC(c3c[nH]c4ccccc34)C2=O)cc1 (stereo not drawn),"inconclusive: 2.62 µM [inhibitor, partial curve, poor fit]"
23,CCn1c(=O)n(CC)c2cc(N3CCCC3)c(NC(=O)c3ccc(C)cc3)cc21,"inconclusive: 11.7 µM [inhibitor, single point]"

row,Compound,Potency
1,CCc1ccc(NC(=O)Cn2ncn3c(cc4ccccc43)c2=O)cc1,active: 1.47 µM
2,CCOC(=O)C1(C)C=C(Nc2ccc(OCC)cc2)C(=O)N1c1ccccc1 (stereo not drawn),"inconclusive: 1.47 µM [inhibitor, full curve, poor fit]"
3,Cc1n[nH]c(C)c1C(=O)CC1(O)C(=O)N(CCc2ccccc2)c2ccc(Br)cc21 (stereo not drawn),"inconclusive: 3.7 µM [inhibitor, full curve]"
4,CCOC(=O)C1=C(CP(=O)(c2ccccc2)c2ccccc2)NC(=O)NC1c1ccc(Cl)cc1 (stereo not drawn),"inconclusive: 11.7 µM [inhibitor, single point]"
5,CCN(CC)C(=O)C1=C(C)NC(=O)NC1c1c(F)cccc1Cl (stereo not drawn),"inconclusive: 18.5 µM [inhibitor, single point]"
6,O=C(CCC(=O)NC1CCN(Cc2ccccc2)CC1)NCc1ccco1,"inconclusive: 18.5 µM [inhibitor, partial curve, poor fit]"
7,CC1CCN(Cc2nnnn2-c2ccc(Cl)cc2)CC1,"inconclusive: 3.29 µM [inhibitor, single point]"
8,O=C1CN(O)C=C2N=c3ccccc3=C2N1c1ccc([N+](=O)[O-])cc1,"inconclusive: 18.5 µM [inhibitor, single point]"
9,CNC(=S)N1CCN(c2ccc([N+](=O)[O-])cc2)CC1,active: 13.1 µM
10,Cc1ccc(Cl)cc1NC1=C/C(=N\S(=O)(=O)c2cccs2)c2ccccc2C1=O,active: 0.147 µM
11,Cc1cc2c(C)cc(=O)[nH]c2cc1NC(=O)CCl,active: 8.28 µM
12,O=C(c1ccc(NS(=O)(=O)c2ccccc2)cc1)N1CCOCC1,inactive
13,CCN(c1ccccc1)S(=O)(=O)c1ccc(Cl)c(NC(=O)CSc2nncs2)c1,"inconclusive: 10.4 µM [inhibitor, single point]"
14,CC(=O)Nc1ccc(Nc2ccc3c4c(cc(=O)n3C)-c3ccccc3C(=O)c24)cc1,"inconclusive: 1.85 µM [inhibitor, partial curve, poor fit]"
15,COC(=O)CC1C(=O)NCCN1C(=O)c1cc([N+](=O)[O-])ccc1Cl (stereo not drawn),inactive
16,O=C(Nc1nc(-c2ccccn2)cs1)C1CC1,"inconclusive: 1.04 µM [inhibitor, partial curve, poor fit]"
17,CCCSCCCNC(=O)Cn1cc2c(n1)CCC(C)C2 (stereo not drawn),"inconclusive: 1.17 µM [inhibitor, full curve, poor fit]"
18,CCC1=C2CC[C@H]3C(=O)N(C)C(=O)[C@H]3[C@H]2[C@@]2(Cc3ccccc3)C(=NCC(=O)OC)OC(=O)N2C1=O,"inconclusive: 9.28 µM [inhibitor, single point]"
19,Cc1cc(N(CCO)CCO)ccc1N=Nc1cc(F)ccc1F,inactive
20,O=S(=O)(c1ccc(SCCOc2ccc(F)cc2)nc1)N1CCCC1,"inconclusive: 14.7 µM [inhibitor, partial curve, poor fit]"
21,CCCNc1c(NC(=O)C2CCC(C)CC2)c(=O)oc2ccccc12 (stereo not drawn),"inconclusive: 0.262 µM [inhibitor, full curve, poor fit]"
22,COc1cc(OC)cc(N(C(=O)CNC(=O)c2ccco2)C(C(=O)NCC2CCCO2)c2ccccc2)c1 (stereo not drawn),inactive

# 3 records picked at random from the list so far:
row,Compound,Potency
1,COc1cc(CN(C)CC2CCCN(CCc3ccc(F)cc3)C2)c(Cl)cc1O (stereo not drawn),"inconclusive: 18.5 µM [inhibitor, single point]"
3,COC(=O)C1=C(CS(=O)(=O)c2ccc(Cl)cc2)NC(=O)NC1c1ccc(O)c(OC)c1 (stereo not drawn),"inconclusive: 9.28 µM [inhibitor, single point]"
16,O=C(Nc1nc(-c2ccccn2)cs1)C1CC1,"inconclusive: 1.04 µM [inhibitor, partial curve, poor fit]"
